Reference: article PMC5379978
Results are given in words; binding and its absence hold for the method and conditions named. Binding seen in cells or lysates may run through a third protein. Some results given as binding are weak or reduced against the parent protein; the word gives no strength. Sequences can lack the tags named with a protein.

Biological target: T1, Eros (essential for reactive oxygen species), N-terminally FLAG-tagged (mouse) (UniProt Q3TYS2)
T1 sequence: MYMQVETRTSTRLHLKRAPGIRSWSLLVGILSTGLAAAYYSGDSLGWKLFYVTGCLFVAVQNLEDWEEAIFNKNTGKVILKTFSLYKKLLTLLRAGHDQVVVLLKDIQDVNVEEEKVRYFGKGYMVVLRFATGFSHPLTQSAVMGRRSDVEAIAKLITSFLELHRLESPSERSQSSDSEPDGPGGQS
Experiment: co-IP; RAW macrophages expressing Eros-FLAG lysed in 0.1% NP-40, 150 mM NaCl; extracts incubated with anti-FLAG M2 coupled to Protein G magnetic beads, 90 min, 4°C; control antibody in parallel; blot for gp91phox

B1: gp91phox (protein, UniProt Q61093 1-570)
chain: MGNWAVNEGLSIFVILVWLGLNVFLFINYYKVYDDGPKYNYTRKLLGSALALARAPAACLNFNCMLILLPVCRNLLSFLRGSSACCSTRIRRQLDRNLTFHKMVAWMIALHTAIHTIAHLFNVEWCVNARVGISDRYSIALSDIGDNENEEYLNFAREKIKNPEGGLYVAVTRLAGITGIVITLCLILIITSSTKTIRRSYFEVFWYTHHLFVIFFIGLAIHGAERIVRGQTAESLEEHNLDICADKIEEWGKIKECPVPKFAGNPPMTWKWIVGPMFLYLCERLVRFWRSQQKVVITKVVTHPFKTIELQMKKKGFKMEVGQYIFVKCPKVSKLEWHPFTLTSAPEEDFFSIHIRIVGDWTEGLFNACGCDKQEFQDAWKLPKIAVDGPFGTASEDVFSYEVVMLVGAGIGVTPFASILKSVWYKYCDNATSLKLKKIYFYWLCRDTHAFEWFADLLQLLETQMQERNNANFLSYNIYLTGWDESQANHFAVHHDEEKDVITGLKQKTLYGRPNWDNEFKTIASEHPNTTIGVFLCGPEALAETLSKQSISNSESGPRGVHFIFNKENF
Question: Which binding does the source give for B1 here?
Answer: Its binding is “binds”.
